Data taken from PMC5494197.
No constants are given. Whether binding was seen depends on the method and setting. In cells and extracts the contact can be indirect. Some entries that bind do so weakly or less than the wild type. Tags and fused reporters may be left off the sequences shown.

Amino acid sequences for entries named in this document (tags omitted). Residues count along the entry.
UniProt P56480, residues 47-529: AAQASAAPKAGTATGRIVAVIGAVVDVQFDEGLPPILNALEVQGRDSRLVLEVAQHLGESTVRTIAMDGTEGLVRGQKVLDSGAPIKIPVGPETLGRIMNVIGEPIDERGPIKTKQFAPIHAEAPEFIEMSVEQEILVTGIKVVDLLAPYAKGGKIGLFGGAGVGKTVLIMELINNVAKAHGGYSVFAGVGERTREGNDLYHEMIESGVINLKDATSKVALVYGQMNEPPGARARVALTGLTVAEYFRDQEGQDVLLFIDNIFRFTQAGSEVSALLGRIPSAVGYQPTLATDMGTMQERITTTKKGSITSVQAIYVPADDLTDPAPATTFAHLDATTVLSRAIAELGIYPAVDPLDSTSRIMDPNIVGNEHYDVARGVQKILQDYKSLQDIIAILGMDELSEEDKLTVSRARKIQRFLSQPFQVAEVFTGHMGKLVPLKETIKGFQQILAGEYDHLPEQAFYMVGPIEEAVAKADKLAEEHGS
UniProt Q03265, residues 44-553: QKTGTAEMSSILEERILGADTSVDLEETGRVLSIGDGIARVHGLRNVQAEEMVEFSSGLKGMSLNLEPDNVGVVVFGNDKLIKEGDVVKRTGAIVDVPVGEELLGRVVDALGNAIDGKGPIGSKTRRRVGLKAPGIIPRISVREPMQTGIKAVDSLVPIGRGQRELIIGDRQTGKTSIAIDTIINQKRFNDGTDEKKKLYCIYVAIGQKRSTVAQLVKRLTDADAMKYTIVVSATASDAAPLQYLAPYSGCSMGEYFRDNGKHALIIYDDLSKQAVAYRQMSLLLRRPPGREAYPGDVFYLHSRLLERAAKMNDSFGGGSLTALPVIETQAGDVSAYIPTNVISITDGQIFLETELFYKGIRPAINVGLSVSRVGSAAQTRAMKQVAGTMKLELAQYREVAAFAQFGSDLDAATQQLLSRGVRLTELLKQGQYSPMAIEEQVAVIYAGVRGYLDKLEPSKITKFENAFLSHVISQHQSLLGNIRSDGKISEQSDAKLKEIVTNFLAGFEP

Target: T1, GST-tagged OSCP (oligomycin sensitivity conferring protein), wild type (human) (UniProt P48047)
T1 sequence: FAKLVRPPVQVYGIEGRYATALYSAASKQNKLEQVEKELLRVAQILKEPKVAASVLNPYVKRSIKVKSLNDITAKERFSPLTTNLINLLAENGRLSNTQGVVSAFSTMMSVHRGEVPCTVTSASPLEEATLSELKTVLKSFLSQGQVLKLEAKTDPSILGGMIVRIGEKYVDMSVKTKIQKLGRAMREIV
Assay: pull-down; GST-tagged OSCP on glutathione agarose, pre-incubated with or without Aβ1–42, unbound Aβ1–42 washed off, then incubated overnight at 4 °C with mitochondria lysates; blotted for α- and β-subunits; only the target purified

binding	Substance
binds	F1FO-ATP synthase β-subunit (from UniProt P56480 47-529)
binds	F1FO-ATP synthase α-subunit (from UniProt Q03265 44-553)
